Repeats are few or missing, and single values can be far off.
Compound: [O-][N+](C(C1=C(C(O)=C2)NC(C(C=C3)=CC=C3Cl)C4C1C=CC4)=C2Cl)=O
Experiment: melting temperature shift (compound 7 minus DMSO); higher = compound stabilises the protein
Settings: 10 µM
Protocol: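 Thermal proteome profiling (TMT mass spectrometry) in intact DAOY medulloblastoma cells or DAOY lysates treated with 10 µM compound 7 or DMSO, heated at 10 temperatures from 40.5 to 73.8 °C for 3 min. Melting curves were fitted with the Bioconductor TPP package, and the melting point difference between compound and vehicle is reported per protein (single curve per condition).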

The chains behind the UniProt entries cited, without tags or fusion partners. Where a name states a change or a piece, a line headed by the entry shows the natural chain unless it says otherwise.
UniProt Q9UHB7: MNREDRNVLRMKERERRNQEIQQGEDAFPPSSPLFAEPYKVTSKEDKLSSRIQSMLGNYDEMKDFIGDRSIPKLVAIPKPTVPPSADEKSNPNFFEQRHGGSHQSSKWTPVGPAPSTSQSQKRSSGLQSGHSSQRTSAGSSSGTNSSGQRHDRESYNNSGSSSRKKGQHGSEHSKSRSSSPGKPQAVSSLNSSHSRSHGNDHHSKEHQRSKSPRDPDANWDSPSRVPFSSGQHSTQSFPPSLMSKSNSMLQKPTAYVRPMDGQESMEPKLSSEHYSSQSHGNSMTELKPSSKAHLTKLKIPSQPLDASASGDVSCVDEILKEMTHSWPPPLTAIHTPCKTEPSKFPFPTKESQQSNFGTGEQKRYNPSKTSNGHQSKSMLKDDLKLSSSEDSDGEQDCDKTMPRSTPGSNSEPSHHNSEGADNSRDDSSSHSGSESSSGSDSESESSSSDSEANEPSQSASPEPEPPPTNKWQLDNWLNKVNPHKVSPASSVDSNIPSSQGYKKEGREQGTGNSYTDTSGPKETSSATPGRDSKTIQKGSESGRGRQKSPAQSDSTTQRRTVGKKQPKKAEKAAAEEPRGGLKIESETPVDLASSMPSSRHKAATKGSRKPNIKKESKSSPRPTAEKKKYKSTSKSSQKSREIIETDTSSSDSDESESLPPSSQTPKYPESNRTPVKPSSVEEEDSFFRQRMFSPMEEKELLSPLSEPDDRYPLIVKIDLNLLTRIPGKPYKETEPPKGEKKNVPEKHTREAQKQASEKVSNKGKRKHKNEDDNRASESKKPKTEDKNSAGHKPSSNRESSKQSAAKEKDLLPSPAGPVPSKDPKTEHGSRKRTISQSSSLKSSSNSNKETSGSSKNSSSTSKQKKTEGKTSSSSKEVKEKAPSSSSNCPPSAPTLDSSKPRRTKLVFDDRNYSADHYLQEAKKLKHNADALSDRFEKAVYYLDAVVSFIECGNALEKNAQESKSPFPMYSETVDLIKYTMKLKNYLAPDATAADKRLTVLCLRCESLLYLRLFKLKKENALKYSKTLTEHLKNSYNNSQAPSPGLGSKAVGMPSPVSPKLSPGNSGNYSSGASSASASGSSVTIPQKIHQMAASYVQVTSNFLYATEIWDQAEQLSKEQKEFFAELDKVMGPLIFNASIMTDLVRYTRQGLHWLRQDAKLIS
UniProt Q8NB46: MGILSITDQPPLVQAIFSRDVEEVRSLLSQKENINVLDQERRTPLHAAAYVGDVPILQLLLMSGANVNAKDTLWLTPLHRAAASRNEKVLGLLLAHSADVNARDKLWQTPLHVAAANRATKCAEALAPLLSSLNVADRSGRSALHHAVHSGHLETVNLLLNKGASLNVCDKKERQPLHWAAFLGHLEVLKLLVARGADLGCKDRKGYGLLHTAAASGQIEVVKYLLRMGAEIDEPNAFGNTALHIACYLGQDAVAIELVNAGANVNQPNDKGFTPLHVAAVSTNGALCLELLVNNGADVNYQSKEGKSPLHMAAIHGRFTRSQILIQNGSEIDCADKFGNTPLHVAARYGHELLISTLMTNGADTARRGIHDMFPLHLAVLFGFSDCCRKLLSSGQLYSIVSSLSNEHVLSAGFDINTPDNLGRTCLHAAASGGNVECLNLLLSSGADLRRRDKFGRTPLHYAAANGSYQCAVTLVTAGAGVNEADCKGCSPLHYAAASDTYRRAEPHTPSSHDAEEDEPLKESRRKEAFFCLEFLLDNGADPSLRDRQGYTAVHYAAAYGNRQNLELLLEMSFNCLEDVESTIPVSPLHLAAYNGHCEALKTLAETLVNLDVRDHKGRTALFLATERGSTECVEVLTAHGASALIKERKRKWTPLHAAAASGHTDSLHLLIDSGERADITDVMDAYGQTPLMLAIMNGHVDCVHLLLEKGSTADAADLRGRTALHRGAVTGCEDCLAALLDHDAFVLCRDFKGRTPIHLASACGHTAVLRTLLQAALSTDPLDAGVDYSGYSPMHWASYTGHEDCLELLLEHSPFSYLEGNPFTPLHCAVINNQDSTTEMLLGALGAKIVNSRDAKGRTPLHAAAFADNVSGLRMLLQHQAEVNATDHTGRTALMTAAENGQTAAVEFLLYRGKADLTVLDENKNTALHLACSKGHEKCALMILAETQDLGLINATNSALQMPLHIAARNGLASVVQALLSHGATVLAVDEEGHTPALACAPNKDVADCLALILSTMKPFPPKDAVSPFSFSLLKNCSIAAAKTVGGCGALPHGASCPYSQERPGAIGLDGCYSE
UniProt P36957: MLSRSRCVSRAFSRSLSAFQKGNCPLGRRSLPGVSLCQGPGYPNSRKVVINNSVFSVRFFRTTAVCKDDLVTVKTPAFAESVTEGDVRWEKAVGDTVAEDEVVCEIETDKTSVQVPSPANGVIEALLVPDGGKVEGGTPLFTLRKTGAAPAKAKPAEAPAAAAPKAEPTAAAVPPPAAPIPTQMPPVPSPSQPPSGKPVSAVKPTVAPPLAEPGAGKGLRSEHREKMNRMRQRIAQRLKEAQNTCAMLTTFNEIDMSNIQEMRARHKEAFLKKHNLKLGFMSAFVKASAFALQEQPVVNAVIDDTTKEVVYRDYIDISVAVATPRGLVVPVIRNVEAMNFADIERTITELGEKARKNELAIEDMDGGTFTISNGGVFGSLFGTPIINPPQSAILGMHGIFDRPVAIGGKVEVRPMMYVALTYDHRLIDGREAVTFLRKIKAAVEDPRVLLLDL
UniProt O95999: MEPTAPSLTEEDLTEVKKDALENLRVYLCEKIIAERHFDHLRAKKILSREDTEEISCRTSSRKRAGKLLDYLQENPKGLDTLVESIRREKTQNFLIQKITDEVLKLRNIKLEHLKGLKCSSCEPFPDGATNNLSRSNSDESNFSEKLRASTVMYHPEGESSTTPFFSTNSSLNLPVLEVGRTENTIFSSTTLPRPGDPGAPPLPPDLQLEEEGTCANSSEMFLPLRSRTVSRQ
UniProt Q9NVX0: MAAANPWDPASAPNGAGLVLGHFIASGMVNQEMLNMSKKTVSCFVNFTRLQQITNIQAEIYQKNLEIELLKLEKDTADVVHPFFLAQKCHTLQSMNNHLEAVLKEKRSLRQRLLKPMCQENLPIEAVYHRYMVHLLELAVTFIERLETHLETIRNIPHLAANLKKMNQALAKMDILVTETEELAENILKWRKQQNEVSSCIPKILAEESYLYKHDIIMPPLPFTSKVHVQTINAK
UniProt Q9UJ55: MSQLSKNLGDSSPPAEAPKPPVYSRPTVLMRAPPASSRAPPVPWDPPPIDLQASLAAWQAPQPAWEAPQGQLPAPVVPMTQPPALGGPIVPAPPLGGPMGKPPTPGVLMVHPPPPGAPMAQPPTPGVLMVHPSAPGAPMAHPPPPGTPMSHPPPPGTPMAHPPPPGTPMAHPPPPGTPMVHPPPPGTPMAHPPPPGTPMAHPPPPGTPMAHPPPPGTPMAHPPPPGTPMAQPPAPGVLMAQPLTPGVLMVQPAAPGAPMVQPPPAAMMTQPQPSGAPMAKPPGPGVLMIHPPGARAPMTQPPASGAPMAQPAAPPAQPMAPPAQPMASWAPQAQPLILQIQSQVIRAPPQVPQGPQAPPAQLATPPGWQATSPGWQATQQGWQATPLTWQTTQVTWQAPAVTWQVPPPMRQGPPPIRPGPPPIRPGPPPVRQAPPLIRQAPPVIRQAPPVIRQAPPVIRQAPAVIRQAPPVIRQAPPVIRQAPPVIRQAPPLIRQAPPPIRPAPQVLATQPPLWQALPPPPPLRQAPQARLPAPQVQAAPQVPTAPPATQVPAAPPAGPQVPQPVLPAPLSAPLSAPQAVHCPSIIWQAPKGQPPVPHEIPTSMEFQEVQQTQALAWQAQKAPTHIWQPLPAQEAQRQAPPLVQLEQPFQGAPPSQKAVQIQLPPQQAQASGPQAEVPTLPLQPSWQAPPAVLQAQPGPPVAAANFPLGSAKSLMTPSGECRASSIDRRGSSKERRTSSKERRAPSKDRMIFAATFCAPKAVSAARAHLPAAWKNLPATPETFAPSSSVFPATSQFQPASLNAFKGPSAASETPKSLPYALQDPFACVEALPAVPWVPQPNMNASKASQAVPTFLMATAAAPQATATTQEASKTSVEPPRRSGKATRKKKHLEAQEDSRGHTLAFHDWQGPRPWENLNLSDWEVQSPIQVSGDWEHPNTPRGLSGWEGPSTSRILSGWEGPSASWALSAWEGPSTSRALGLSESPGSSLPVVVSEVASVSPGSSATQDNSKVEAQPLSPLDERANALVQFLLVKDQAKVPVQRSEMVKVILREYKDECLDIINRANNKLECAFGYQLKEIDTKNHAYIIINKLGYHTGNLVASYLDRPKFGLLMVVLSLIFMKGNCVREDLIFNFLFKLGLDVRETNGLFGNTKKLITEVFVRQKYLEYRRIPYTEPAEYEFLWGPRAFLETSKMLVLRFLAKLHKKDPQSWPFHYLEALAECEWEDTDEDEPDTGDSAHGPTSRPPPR
UniProt O95819: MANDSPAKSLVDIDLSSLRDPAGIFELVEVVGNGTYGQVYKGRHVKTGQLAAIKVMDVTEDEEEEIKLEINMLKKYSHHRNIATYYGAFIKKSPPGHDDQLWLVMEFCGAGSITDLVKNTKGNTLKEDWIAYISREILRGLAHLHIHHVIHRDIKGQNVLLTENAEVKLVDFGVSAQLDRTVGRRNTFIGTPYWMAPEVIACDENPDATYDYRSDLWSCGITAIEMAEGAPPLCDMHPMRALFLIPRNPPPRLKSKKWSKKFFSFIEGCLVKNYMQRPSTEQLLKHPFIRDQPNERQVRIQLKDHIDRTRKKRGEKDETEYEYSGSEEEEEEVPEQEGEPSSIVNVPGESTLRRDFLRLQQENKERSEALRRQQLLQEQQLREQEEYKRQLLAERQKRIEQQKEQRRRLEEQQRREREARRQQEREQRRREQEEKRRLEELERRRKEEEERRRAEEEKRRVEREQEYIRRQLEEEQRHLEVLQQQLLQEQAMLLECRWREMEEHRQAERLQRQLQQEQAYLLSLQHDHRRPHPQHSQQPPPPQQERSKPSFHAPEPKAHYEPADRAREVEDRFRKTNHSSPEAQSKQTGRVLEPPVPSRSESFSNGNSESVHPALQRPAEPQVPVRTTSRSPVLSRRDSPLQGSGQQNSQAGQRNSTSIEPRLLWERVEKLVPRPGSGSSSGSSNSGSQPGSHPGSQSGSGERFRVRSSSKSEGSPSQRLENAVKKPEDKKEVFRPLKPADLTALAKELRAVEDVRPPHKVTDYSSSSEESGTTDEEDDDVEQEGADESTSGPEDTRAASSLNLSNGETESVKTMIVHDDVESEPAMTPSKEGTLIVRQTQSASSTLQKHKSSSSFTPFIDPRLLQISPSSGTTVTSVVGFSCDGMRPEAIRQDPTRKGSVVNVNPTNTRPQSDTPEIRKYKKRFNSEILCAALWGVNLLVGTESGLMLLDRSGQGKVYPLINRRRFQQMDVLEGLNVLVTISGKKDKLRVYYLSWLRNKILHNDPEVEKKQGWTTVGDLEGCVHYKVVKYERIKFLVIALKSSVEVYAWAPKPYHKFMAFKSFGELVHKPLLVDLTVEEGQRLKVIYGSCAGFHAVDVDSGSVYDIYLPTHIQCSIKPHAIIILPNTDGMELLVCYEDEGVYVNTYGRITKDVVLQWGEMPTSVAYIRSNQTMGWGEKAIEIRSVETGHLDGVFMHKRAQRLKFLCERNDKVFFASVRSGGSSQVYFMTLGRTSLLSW
UniProt Q9H270: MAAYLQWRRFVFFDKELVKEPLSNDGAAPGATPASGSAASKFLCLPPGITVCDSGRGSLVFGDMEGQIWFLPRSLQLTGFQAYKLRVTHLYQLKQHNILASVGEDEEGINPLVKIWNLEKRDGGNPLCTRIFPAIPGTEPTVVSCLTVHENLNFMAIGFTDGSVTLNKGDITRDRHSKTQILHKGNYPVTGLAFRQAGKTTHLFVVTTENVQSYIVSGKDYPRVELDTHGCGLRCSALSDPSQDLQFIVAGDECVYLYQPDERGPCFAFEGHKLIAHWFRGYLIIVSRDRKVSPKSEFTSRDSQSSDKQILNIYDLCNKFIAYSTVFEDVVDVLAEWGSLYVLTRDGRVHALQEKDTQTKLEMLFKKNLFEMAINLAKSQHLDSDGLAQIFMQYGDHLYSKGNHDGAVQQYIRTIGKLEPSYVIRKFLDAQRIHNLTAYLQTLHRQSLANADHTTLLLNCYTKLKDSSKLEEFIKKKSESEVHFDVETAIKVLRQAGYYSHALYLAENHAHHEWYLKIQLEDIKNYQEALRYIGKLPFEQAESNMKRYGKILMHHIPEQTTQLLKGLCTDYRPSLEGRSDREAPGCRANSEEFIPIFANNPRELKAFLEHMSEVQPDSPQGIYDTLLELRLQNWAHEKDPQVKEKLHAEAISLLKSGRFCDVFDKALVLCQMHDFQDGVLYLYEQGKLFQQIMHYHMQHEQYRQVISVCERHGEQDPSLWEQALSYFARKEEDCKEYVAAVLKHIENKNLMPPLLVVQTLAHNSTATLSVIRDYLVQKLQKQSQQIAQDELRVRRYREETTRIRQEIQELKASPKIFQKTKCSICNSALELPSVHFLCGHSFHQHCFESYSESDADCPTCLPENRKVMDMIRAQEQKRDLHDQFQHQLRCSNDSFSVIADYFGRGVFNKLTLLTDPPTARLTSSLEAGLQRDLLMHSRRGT

[1] = system: DAOY cell lysate, treatment time: 20 min, 4 °C
[2] = system: intact DAOY cells, treatment time: 90 min, 37 °C

| Target | melting temperature shift [1] [°C] | melting temperature shift [2] [°C] |
| --- | --- | --- |
| HNRNPU (UniProt Q00839) | 0.767 | -1.21 |
| TNPO1 (UniProt Q92973) | -0.567 | -0.601 |
| DARS2 (UniProt Q6PI48) | 0.24 | -3.17 |
| THOC1 (UniProt Q96FV9) | 1.4 |  |
| VPS4B (UniProt O75351) | -0.206 | -1.82 |
| UniProt Q9UHB7 | 0.253 | 1.66 |
| ANKRD52 (UniProt Q8NB46) | -0.23 | 2.32 |
| DLST (UniProt P36957) | 3.01 |  |
| SYPL1 (UniProt Q16563) | 0.348 |  |
| TRAPPC8 (UniProt Q9Y2L5) | -0.303 | 0.218 |
| GNL2 (UniProt Q13823) | 0.41 |  |
| HMBS (UniProt P08397) | -0.344 | 0.899 |
| UniProt Q86US8 | 0.228 |  |
| STRADA (UniProt Q7RTN6) | -2.2 |  |
| BCL10 (UniProt O95999) | -2.46 | 0.194 |
| GTF3C2 (UniProt Q8WUA4) | 6.41 |  |
| HAUS2 (UniProt Q9NVX0) | -0.121 | 1.14 |
| UniProt Q9UJ55 |  | 0.471 |
| UniProt P12110 | -0.0814 | 0.416 |
| CHRAC1 (UniProt Q9NRG0) | -0.192 |  |

| Target | melting temperature shift [1] [°C] | melting temperature shift [2] [°C] |
| --- | --- | --- |
| MSH2 (UniProt P43246) | -0.605 | -0.264 |
| SNX27 (UniProt Q96L92) | -0.0615 | -0.0854 |
| UniProt Q9Y5V3 | -0.356 | 0.407 |
| FAM96B (UniProt Q9Y3D0) | -0.0478 | -0.126 |
| RPS15A (UniProt P62244) | -0.707 | -0.803 |
| UniProt Q6P4R8 | 1.17 |  |
| TSR2 (UniProt Q969E8) | 0.505 | 3.27 |
| L2HGDH (UniProt Q9H9P8) | 1.34 | 1.65 |
| PDLIM5 (UniProt Q96HC4) | -0.664 | -0.0418 |
| UniProt P01009 | -0.0351 | 5.54 |
| GDAP2 (UniProt Q9NXN4) | 0.52 | 2.92 |
| GLT8D1 (UniProt Q68CQ7) | 2.43 |  |
| MKI67 (UniProt P46013) | 0.858 | 1.16 |
| PDHB (UniProt P11177) | -0.245 | -0.841 |
| MAP4K4 (UniProt O95819) | -0.099 | -0.368 |
| GRIPAP1 (UniProt Q4V328) | -0.855 | 0.318 |
| B4GALT4 (UniProt O60513) | -0.354 |  |
| DNAJB14 (UniProt Q8TBM8) | 0.884 |  |
| CPA4 (UniProt Q9UI42) | -0.29 | 7.12 |
| ENOPH1 (UniProt Q9UHY7) | 0.0793 |  |

| Target | melting temperature shift [1] [°C] | melting temperature shift [2] [°C] |
| --- | --- | --- |
| JTB (UniProt O76095) |  | 2.87 |
| SRRM1 (UniProt Q8IYB3) | 0.287 | 0.393 |
| CNOT3 (UniProt O75175) | -0.551 | -0.457 |
| NELFA (UniProt Q9H3P2) | -0.311 | -3.27 |
| UniProt Q16720 |  | -1.88 |
| SH2D4A (UniProt Q9H788) | 0.999 | -0.0857 |
| ARHGAP12 (UniProt Q8IWW6) | -1.31 |  |
| P30462 (UniProt P01889) | 1.49 |  |
| UniProt Q8NFQ8 | 2.12 | -0.122 |
| UniProt Q00872 |  | -0.667 |
| POLE (UniProt Q07864) | -0.994 |  |
| VPS11 (UniProt Q9H270) | 0.521 | -0.26 |
| VPS53 (UniProt Q5VIR6) | -0.693 | -0.848 |
| CHERP (UniProt Q8IWX8) | -0.135 | -0.787 |
| B3GLCT (UniProt Q6Y288) | -1.22 | -0.807 |
| LIN9 (UniProt Q5TKA1) |  | 1.57 |
| ETFDH (UniProt Q16134) | 1.71 |  |
| STT3B (UniProt Q8TCJ2) | 1.72 | -0.16 |

A different layout for some results above:
Target,melting temperature shift [1] [°C],melting temperature shift [2] [°C]
JTB (UniProt O76095),,2.87
SRRM1 (UniProt Q8IYB3),0.287,0.393
